Assay: general procedure: Fmoc solid-phase peptide synthesis; Fmoc-Gly-Sasrin; HOBT, TBTU, DIEA
Conditions: whole synthesis, scale 0.69 mmol, TFA (protected cyclopeptides); hydrochlorides (final conjugates)

Q: With c(Arg(Pmc)-Gly-Asp(OtBu)-D-Phe-Aad) as the substance, how does the isolated mass read?
A: Its isolated mass is 187 mg.

Source: patent US7589099B2 (priority 2004, dated 2009)
